No constants are given. Whether binding was seen depends on the method and setting.

By UniProt entry, the sequences of proteins in these tests, tags left out.
UniProt P06702: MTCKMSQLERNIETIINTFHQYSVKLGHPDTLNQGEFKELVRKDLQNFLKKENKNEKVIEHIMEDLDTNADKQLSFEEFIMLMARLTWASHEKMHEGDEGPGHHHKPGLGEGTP
UniProt P23297: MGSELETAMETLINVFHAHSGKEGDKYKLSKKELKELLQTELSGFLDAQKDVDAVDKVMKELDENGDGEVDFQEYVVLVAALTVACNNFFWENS

The assay concerns the target recombinant human S100A9 (human) (UniProt P06702). As to the kind of experiment: SPR; S100A1, A4, A7, A9 and A13 (~1.3 µg/mL) injected (2 min at 30 µL/min) over immobilised S100A4 and S100A9 (~2.5 kRU); 1 mM Ca++ and 20 µM Zn++; responses at late association phase; both purified. (Surface plasmon resonance follows binding to a sensor surface in real time, without labels.)

In the case of “recombinant human S100A1 (from UniProt P23297 1-94)”, the binding result is “no binding (tested: ~1.3 µg/mL)”.

The record behind these values is paper PMC3648463, “Common Interactions between S100A4 and S100A9 Defined by a Novel Chemical Probe” (PLoS ONE, 2013).
